# Measurements from PubChem BioAssay AID1439 (NMMLSC, 2008).
# Protein sequences, listed by entry. Tags and fused reporters are not part of them.
# UniProt P09471, whole entry, looked up: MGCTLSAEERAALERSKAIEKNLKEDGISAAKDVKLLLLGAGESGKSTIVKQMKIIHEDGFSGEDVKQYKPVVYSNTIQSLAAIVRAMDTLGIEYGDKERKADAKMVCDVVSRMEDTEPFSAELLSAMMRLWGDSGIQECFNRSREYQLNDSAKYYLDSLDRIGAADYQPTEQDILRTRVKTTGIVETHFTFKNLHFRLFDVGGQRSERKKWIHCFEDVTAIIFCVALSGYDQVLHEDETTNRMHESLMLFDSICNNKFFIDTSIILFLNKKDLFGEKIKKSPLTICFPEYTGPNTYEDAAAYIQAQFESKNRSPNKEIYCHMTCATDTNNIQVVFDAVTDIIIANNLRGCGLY
# In all, about 220,000 compounds went through this assay and about 770 (0.35%) were called active. Inconclusive means that the source gave no clear call. Such entries were picked first, then a sample of the others. Cut-off read from the data, not from the text of the source: active = binding response below about 49% or above about 150%; inconclusive = no clear call, values can overlap the other calls; inactive = in between.
# Target: Guanine nucleotide-binding protein G(o) subunit alpha (Homo sapiens) (UniProt P09471)
# Test: RGS7-Galphao binding modulators, primary screen, biochemical, multiplexed bead flow cytometry (AID 1439);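 note: fluorescent Galphao held in activated GDP-AlF4 state binding bead-coupled RGS7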
# Details: at 10 µM, actives lie on both sides
row,Structure (SMILES),binding response (% of control)
1,CC(C)(C)OC(=O)NCCC(=O)N/N=C/c1cccc2cccnc12,inconclusive: 112%
2,CC(NC(=O)Cn1nc(-c2ccccc2)ccc1=O)c1ccccc1 (configuration not stated),inconclusive: 107%
3,O=C(/C=C/c1cccc(F)c1)N1CCN(c2ccccn2)CC1,inconclusive: -1.87%
4,CCOc1ncccc1C(=O)OCC(=O)Nc1ccc2c(c1)OCO2,inconclusive: 78.9%
5,CC(C)CC(NC(N)=O)C(=O)OCC(=O)Nc1ccc(OC(F)F)cc1 (configuration not stated),inactive: 92.6%
6,CCc1ccc(NC(=O)N[C@H](C(=O)O)C(C)CC)cc1 (some centres not stated),inconclusive: 102%
7,Cc1cc(C)c(C(=O)CSc2nnc(N)s2)c(C)c1,inconclusive: 134%
8,COCC(C)NC(=O)c1cc(OC)cc(OC)c1 (configuration not stated),inconclusive: 82%
9,CS(=O)(=O)N1CCN(c2ccnc3cc(Cl)ccc23)CC1,inconclusive: 113%
10,O=C(NCc1nnc(SCC(=O)N2CCCC2)o1)c1ccco1,inactive: 98.9%
11,CC/C=C/C(=O)N1CC2(CC(c3cccc(NC(=O)COc4ccc(Cl)cc4)c3)=NO2)C[C@H]1C(N)=O (some centres not stated),inconclusive: 29.1%
12,Cc1ccc(SC(C)C(=O)Nc2ccc(S(=O)(=O)N3CCOCC3)cc2)cc1 (configuration not stated),inactive: 100%
13,Nc1nnc(SCC(=O)NC2CCCc3ccccc32)s1 (configuration not stated),inconclusive: 69.6%
14,CC(C)(C)NC(=O)NC(=O)COC(=O)c1c(F)cccc1Cl,inconclusive: 95.1%
15,CCOc1ccc2nc(SCC(=O)c3ccccc3)sc2c1,inactive: 102%
16,O=C(OCC(=O)N1CCOCC1)c1ccc2c(c1)OCCO2,active: 29.8%
17,Nc1c(C(=O)N/N=C/c2ccccc2Cl)oc2nc(-c3ccccc3)cc(-c3ccco3)c12,inconclusive: 84.8%
18,CN(C)c1ccc(C(O)P(=O)(OCc2ccccc2)c2ccc(N(C)C)cc2)cc1 (configuration not stated),inconclusive: 42%
19,CC1(C)CC2c3cccc(C(=O)O)c3C(=O)N2c2c1ccc1ccccc21 (configuration not stated),inactive: 99.5%
20,CC(C)C(=O)N1CCC2(CC1)Oc1ccc(Cl)cc1C(=O)C21CC(c2cccnc2)=NO1 (configuration not stated),inconclusive: 91.4%
21,C/C(=N\Nc1ccc(Cl)c(C(=O)O)c1)c1ccc[nH]1,inconclusive: 47.5%
22,O=C(CNCc1ccc(F)cc1)Nc1ccccc1[N+](=O)[O-],inactive: 98.9%
23,COc1ccc(N2C(S)=C(C#N)C(=O)NC23CCCCC3)cc1,inactive: 96.5%

row,Structure (SMILES),binding response (% of control)
1,COc1ccccc1OCC(=O)Nc1sc2c(c1C(=O)NCC1CCCO1)CCC2 (configuration not stated),inactive: 99.2%
2,O=C(Nc1ccc(OC(F)(F)F)cc1)Nc1cccnc1,inconclusive: 78.8%
3,COC(=O)C1=C(C)NC(C)=C(C(=O)OC(C)C)C1c1cccc2nonc12 (configuration not stated),inactive: 101%
4,O=c1[nH]c(CSc2nnc3ccccn23)nc2cc(C(F)(F)F)ccc12,inactive: 90%
5,C[C@H](NC(N)=O)C(=O)Nc1ccc2c(c1)OCO2,inconclusive: 41.1%
6,CC(C)(C)C(=O)OC/C(N)=N/OC(=O)c1ccc(Cl)c(Cl)c1,inconclusive: 222%
7,O=C(NNC1CC(=O)N(c2ccc(Cl)cc2)C1=O)c1ccco1 (configuration not stated),inconclusive: 83.2%
8,COCCn1c(-c2cccs2)nc2nc3ccccc3nc21,inconclusive: 104%
9,O=C(COC(=O)c1ccc(Br)o1)Nc1nc2c(F)c(F)c(F)cc2s1,inconclusive: 94.5%
10,CC(C)CCNC(=O)c1onc(CSc2ccc(F)c(F)c2)c1C(=O)NCCC(C)C,inconclusive: 113%
11,O=C(COC(=O)c1cccc(Br)c1)NCCC1=CCCCC1,inconclusive: 88.9%
12,C/C(=N\NC(=O)COc1ccc(C#N)cc1)c1ccc(N2CCOCC2)cc1,inactive: 98.2%
13,Cc1ccc(CNC(=S)N(C)C)cc1,inconclusive: 109%
14,Cc1cc(C(=O)NNS(=O)(=O)c2ccccc2C(F)(F)F)nn1C(C)(C)C,inconclusive: 23.8%
15,COc1ccc(/C(C)=N/Nc2ccc(F)cc2F)c(O)c1,inconclusive: 98.8%
16,CN(C)CCCNC(=S)Nc1ccc(-c2ccccc2)cc1,inconclusive: 122%
17,COc1ccc(C(=O)NC2(C(F)(F)F)C(=O)Nc3c2c(=O)[nH]c(=O)n3CCc2ccc(OC)c(OC)c2)cc1 (configuration not stated),inactive: 98.6%
18,CCc1ccc2nc(SCC(=O)Nc3nnc(C)s3)c(C)cc2c1,inactive: 101%
19,N#Cc1ccc(/C=C/C(=O)c2ccccc2)cc1,inconclusive: 125%
20,O=C(/C=C/c1ccccc1)NCCc1ccccc1,inconclusive: 105%
21,COCCCNC(=O)c1cc(C(=O)c2c(-c3c(Cl)cccc3Cl)noc2C)c[nH]1,inactive: 97.7%
22,CN1CCN(C(CNS(=O)(=O)c2ccc(F)cc2)c2cccnc2)CC1 (configuration not stated),inactive: 102%
23,Cc1ccc(SCC(=O)NC2CCS(=O)(=O)C2)cc1 (configuration not stated),inconclusive: 114%

# Reprinted at random: 5 entries already listed.
row,Structure (SMILES),binding response (% of control)
9,O=C(COC(=O)c1ccc(Br)o1)Nc1nc2c(F)c(F)c(F)cc2s1,inconclusive: 94.5%
10,CC(C)CCNC(=O)c1onc(CSc2ccc(F)c(F)c2)c1C(=O)NCCC(C)C,inconclusive: 113%
22,CN1CCN(C(CNS(=O)(=O)c2ccc(F)cc2)c2cccnc2)CC1 (configuration not stated),inactive: 102%
20,O=C(/C=C/c1ccccc1)NCCc1ccccc1,inconclusive: 105%
16,CN(C)CCCNC(=S)Nc1ccc(-c2ccccc2)cc1,inconclusive: 122%

# The results go on:

row,Structure (SMILES),binding response (% of control)
1,COc1nc(N/N=C/c2ccc(C)cc2)nc(N2CCCCC2)n1,inactive: 102%
2,Cc1ccc(-c2noc(-c3cc(C(C)(C)C)nn3Cc3ccccc3)n2)cc1,inconclusive: 115%
3,CN(C)c1ccc(/C=N/NC(=O)c2ccc3nc[nH]c3c2)cc1,inconclusive: 92.8%
4,Oc1ccc(N2CCN(C(c3cccnc3)c3nnnn3Cc3ccccc3)CC2)cc1 (configuration not stated),active: -9.43%
5,COc1cc(-c2cc(C(=O)NCCc3ccc(S(N)(=O)=O)cc3)c3ccccc3n2)cc(OC)c1OC,inconclusive: 281%
6,CC(C)(C(=O)Nc1nccs1)c1ccccc1,active: 156% [activator]
7,CCCn1ncc(CN2CCN(Cc3ccc(C)o3)C(CCO)C2)c1C (configuration not stated),inconclusive: 98.4%
8,COc1ccc(N2C(=O)CC(SCc3ccc(Cl)cc3)C2=O)cc1 (configuration not stated),inconclusive: 61.8%
9,O=c1c2ccccc2ncn1CCCCOc1ccc(Br)cc1,inconclusive: 94.1%
10,COc1ccc(CCn2c(NN=C(C)C)nc3c2c(=O)[nH]c(=O)n3C)cc1,inconclusive: 111%
11,Cn1c(C(=O)O)ccc1S(=O)(=O)N1CCCCCC1,inconclusive: 15%
12,COCCCNC(=S)N/N=C/c1ccc(OC)c(Br)c1,inconclusive: 83%
13,CC(=O)Nc1nnc(CCS(=O)(=O)c2ccc(Cl)cc2)s1,inconclusive: 107%
14,CCOc1cc([N+](=O)[O-])cc2c1C(=O)Nc1ccccc1O2,inconclusive: 141%
15,CS(=O)(=O)c1ccc2nc(NC(=O)c3ccc(Cl)nc3)sc2c1,inconclusive: 88.5%
16,Cc1nc(SCC(=O)NCc2ccco2)c2c(=O)n(C)c(=O)n(CC(C)C)c2n1,inconclusive: 111%
17,CC(C)OCCCNC1=C(Cl)C(=O)c2ccccc2C1=O,inconclusive: 93.5%
18,Cc1cccc(C)c1N1CCc2cn[nH]c21,inactive: 102%
19,CCOC(=O)c1c(CN2CCC(C)CC2)n(C)c2cc(Br)c(OC)cc12,inconclusive: 107%
20,CSc1nc(-c2ccc(Cl)cc2)nc(N)c1C#N,inconclusive: 46.7%
21,NC(=O)COC(=O)c1ccc(-c2ccc(O)cc2)cc1,inconclusive: 75.3%
22,CCN(C(=O)Nc1ccccc1OC)c1c(N)n(Cc2ccccc2)c(=O)[nH]c1=O,inactive: 104%
23,O=C(CCC(=O)NNC(=O)Nc1cccc(Cl)c1)NCc1ccccc1,inconclusive: 86.1%

# 2 consecutive entries from above, for reference:
row,Structure (SMILES),binding response (% of control)
20,CSc1nc(-c2ccc(Cl)cc2)nc(N)c1C#N,inconclusive: 46.7%
21,NC(=O)COC(=O)c1ccc(-c2ccc(O)cc2)cc1,inconclusive: 75.3%

# The listing continues:

row,Structure (SMILES),binding response (% of control)
1,Cc1ccccc1OCCCC(=O)Nc1nncs1,inactive: 100%
2,COc1ccc2c(C)nc(Nc3nc(-c4ccccc4)cc(=O)[nH]3)nc2c1,inconclusive: 29.5%
3,C/C(=N\NC(=O)c1c(C)nc2ccccn12)c1cccc([N+](=O)[O-])c1,inconclusive: 100%
4,CC(C)n1c(O)c(N=NC(=O)C2COc3ccccc3O2)c2ccccc21 (configuration not stated),inactive: 98.9%
5,CCOc1ccc2nc(N(CCN(CC)CC)C(=O)c3cccc([N+](=O)[O-])c3)sc2c1,inconclusive: 115%
6,NC(=O)Nc1ccc(C(=O)OCC(=O)Nc2ccc(Cl)cn2)cc1,inconclusive: 69.2%
7,COc1ccccc1NC(=S)Nc1ccc2cn[nH]c2c1,inconclusive: 114%
8,Cc1ccc2nc(-c3cccc(Br)c3)cc(C(=O)Nn3cnnc3)c2c1,inconclusive: 128%
9,O=S(=O)(c1ccccc1)N(CC(O)COc1ccccc1)c1ccccc1 (configuration not stated),inconclusive: 123%
10,COC(=O)C1C(O)=C(C=Nc2ccc3ccccc3c2)C(=O)CC1(C)C (configuration not stated),inconclusive: 108%
11,COC(=O)C1=C(C)N(Cc2ccccc2)C(=O)/C1=C\c1ccco1,inconclusive: 93.6%
12,Cc1ccc(OCC(=O)Nc2cc(C)on2)c([N+](=O)[O-])n1,inconclusive: 104%
13,CCCCC1C2C(=O)N(c3ccccc3)C(=O)C2ON1c1ccccc1 (configuration not stated),inconclusive: 86.2%
14,O=C(c1cc(Br)ccc1Cl)N1CCCC1,inconclusive: 96.2%
15,Cc1cc(C)n(NC(=S)NC2CCCCC2)c(=O)c1C#N,inconclusive: 105%
16,N#CCCn1cc(/C=N/NC(N)=S)c(-c2ccccc2)n1,inactive: 97.6%
17,O=C1/C(=C/c2ccccn2)SC(=S)N1CCc1ccccc1,inconclusive: 109%
18,COc1ccc(NC(=O)CN2CCN(C(=S)NC3CCCC3)CC2)cc1,inconclusive: 125%
19,CC(O)C(NS(=O)(=O)c1ccc(Cl)cc1)C(=O)OCc1cc([N+](=O)[O-])cc2c1OCOC2 (configuration not stated),inconclusive: 100%
20,CCCNC(=O)c1nc(C)n(-c2cc(Cl)ccc2Cl)n1,inconclusive: 92.4%
21,CC1CC(C)CN(C(=O)/C=C/c2ccc([N+](=O)[O-])s2)C1 (configuration not stated),active: 14.7%
22,O=C(NCCC1=CCCCC1)C(=O)NCC(c1ccco1)N1CCN(c2ccc(F)cc2)CC1 (configuration not stated),inactive: 97.5%
23,NC(=O)c1ccc(NC(=O)COC(=O)CCC(=O)c2ccc(Cl)cc2)cc1,inconclusive: 101%
